No constants are given. Whether binding was seen depends on the method and setting. For some of these results: In cells and extracts the contact can be indirect. Some results given as binding are weak or reduced against the parent protein; the word gives no strength. For some of these results: Sequences can lack the tags named with a protein.

By UniProt entry, the sequences of proteins in these tests, tags left out.
UniProt O64399: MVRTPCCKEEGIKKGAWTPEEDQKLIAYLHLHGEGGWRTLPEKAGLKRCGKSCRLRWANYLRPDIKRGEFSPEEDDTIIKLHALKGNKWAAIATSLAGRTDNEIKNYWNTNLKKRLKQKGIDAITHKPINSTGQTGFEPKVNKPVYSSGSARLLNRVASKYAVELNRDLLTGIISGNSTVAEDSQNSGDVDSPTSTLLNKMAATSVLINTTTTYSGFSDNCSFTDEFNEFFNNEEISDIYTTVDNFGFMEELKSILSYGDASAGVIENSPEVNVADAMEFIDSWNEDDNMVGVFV
UniProt Q58G47: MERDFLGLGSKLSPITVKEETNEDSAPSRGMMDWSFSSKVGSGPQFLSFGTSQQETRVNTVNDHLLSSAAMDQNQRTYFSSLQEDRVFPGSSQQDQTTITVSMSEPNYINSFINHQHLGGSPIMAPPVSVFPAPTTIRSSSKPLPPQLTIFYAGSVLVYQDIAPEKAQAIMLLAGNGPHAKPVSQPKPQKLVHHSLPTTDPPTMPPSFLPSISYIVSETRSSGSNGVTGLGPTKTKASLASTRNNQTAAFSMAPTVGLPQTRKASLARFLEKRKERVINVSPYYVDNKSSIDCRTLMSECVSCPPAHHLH
UniProt Q9SZ06: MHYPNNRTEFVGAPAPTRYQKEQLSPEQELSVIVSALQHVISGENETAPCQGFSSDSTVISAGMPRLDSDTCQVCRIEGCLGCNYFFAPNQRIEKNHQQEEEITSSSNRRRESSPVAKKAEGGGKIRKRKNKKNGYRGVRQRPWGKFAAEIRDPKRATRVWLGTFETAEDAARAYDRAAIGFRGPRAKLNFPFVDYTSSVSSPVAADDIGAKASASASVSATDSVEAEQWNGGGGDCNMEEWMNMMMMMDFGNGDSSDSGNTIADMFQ
UniProt Q9FIP9: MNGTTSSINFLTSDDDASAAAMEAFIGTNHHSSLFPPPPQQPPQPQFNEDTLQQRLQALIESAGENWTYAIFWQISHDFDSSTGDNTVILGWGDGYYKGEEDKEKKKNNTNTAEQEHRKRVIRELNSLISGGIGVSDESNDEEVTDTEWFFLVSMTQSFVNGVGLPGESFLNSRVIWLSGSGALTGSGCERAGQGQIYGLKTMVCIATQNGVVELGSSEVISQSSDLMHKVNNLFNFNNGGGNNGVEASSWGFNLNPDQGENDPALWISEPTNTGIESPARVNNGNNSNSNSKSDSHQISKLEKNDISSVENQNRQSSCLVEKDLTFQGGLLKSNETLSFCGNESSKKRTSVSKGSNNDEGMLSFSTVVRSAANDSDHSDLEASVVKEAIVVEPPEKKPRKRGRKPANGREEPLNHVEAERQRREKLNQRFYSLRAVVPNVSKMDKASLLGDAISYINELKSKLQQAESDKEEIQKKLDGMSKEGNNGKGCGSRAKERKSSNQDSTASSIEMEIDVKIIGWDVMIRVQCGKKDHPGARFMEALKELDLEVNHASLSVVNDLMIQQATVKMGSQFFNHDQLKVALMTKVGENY
UniProt O49687: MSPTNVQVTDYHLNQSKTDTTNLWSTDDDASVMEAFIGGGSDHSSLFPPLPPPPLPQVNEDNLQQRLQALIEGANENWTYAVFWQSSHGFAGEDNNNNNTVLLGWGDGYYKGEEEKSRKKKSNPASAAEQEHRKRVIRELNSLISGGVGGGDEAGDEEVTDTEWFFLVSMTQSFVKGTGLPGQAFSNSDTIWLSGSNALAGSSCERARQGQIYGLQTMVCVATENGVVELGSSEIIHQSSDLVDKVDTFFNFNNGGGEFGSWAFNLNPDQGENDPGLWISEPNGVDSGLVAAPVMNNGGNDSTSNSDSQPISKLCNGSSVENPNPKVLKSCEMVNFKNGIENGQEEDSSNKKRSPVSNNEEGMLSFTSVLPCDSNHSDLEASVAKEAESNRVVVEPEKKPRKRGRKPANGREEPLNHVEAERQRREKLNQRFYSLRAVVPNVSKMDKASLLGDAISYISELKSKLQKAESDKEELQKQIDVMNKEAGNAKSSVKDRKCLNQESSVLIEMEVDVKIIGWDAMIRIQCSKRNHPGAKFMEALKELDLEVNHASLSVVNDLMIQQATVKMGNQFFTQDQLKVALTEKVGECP

Assay [1] addresses MYB34 fused to the GAL4 BD (Arabidopsis thaliana) (UniProt O64399). In words: two-hybrid.
Assay [2] concerns the target T1, MYB51 fused to the GAL4 BD (Arabidopsis thaliana) (UniProt O49782).
T1 sequence: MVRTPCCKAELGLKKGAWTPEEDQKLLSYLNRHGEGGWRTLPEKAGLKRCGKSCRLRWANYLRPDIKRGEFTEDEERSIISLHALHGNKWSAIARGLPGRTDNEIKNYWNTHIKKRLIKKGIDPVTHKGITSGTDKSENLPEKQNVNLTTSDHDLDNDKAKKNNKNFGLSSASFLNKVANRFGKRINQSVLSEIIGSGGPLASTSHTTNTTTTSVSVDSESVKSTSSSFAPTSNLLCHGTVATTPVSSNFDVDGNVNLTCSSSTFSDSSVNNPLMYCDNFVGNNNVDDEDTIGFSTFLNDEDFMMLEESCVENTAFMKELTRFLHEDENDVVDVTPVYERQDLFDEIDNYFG
As to the kind of experiment: two-hybrid.

In assay [3] the target is MYB51NT (yeast two-hybrid fusion) (Arabidopsis thaliana) (UniProt O49782). As to the kind of experiment: two-hybrid.
The target of assay [4] is T2, Strep-MYB51 (Arabidopsis thaliana) (UniProt O49782).
T2 sequence: T1 sequence
In words: pull-down.

Assay [5] has as its target T3, JAZ10 fused to the GAL4 BD (Arabidopsis thaliana) (UniProt Q93ZM9).
T3 sequence: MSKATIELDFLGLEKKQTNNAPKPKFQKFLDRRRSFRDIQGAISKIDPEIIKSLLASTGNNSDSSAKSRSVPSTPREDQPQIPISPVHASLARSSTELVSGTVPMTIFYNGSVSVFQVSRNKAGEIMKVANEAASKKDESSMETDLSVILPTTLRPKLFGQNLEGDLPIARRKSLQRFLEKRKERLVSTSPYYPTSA
In words: two-hybrid.

Assay [6] has as its target T4, JAZ11 fused to the GAL4 BD (Arabidopsis thaliana) (UniProt Q9M246).
T4 sequence: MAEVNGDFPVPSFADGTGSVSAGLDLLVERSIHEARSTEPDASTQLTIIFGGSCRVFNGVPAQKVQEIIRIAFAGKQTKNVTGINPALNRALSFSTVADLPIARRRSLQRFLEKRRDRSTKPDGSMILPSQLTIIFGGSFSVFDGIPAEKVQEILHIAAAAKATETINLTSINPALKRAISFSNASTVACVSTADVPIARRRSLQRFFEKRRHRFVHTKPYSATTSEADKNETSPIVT
As to the kind of experiment: two-hybrid.

Assay [7] has as its target T5, JAZ3 fused to the GAL4 BD (Arabidopsis thaliana) (UniProt Q9LVI4).
T5 sequence: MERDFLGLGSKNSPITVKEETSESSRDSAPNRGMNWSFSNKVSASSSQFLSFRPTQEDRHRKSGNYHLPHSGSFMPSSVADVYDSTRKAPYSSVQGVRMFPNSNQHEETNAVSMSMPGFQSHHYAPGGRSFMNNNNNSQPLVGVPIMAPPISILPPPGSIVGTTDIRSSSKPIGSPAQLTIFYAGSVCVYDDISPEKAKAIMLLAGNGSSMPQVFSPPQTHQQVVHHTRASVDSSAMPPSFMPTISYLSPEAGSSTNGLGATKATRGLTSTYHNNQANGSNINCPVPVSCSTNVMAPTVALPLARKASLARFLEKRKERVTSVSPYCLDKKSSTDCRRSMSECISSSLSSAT
As to the kind of experiment: two-hybrid.

The target of assay [8] is JAZ4 fused to the GAL4 BD (Arabidopsis thaliana) (UniProt Q58G47). In words: two-hybrid.
The target of assay [9] is T6, JAZ7 fused to the GAL4 BD (Arabidopsis thaliana) (UniProt O64687).
T6 sequence: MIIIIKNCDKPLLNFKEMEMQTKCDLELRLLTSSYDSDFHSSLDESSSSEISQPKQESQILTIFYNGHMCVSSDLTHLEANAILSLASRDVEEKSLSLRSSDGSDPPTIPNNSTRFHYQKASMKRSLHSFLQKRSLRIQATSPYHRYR
In words: two-hybrid.

In assay [10] the target is T7, JAZ8 fused to the GAL4 BD (Arabidopsis thaliana) (UniProt Q8LBM2).
T7 sequence: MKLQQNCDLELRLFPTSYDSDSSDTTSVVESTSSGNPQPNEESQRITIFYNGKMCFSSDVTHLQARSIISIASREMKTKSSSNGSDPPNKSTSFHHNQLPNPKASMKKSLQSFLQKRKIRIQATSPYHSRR
In words: two-hybrid.

In assay [11] the target is T8, JAZ9 fused to the GAL4 BD (Arabidopsis thaliana) (UniProt Q8W4J8).
T8 sequence: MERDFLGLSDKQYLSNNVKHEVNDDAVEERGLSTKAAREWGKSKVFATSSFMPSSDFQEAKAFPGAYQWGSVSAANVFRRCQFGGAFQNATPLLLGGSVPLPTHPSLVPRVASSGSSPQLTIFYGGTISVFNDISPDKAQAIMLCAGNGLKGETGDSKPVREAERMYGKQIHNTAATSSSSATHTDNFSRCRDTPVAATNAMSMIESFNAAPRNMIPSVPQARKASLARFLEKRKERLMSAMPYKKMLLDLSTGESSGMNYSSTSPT
In words: two-hybrid.

Assay [12] addresses T9, nYFP-JAZ10 (Arabidopsis thaliana) (UniProt Q93ZM9).
T9 sequence: T3 sequence
In words: split reporter.

For assay [13], the target named is T10, unfused MYB51 (yeast three-hybrid bridge) (Arabidopsis thaliana) (UniProt O49782).
T10 sequence: T1 sequence
As to the kind of experiment: two-hybrid.

The target in assay [14] is T11, MYB51-cYFP (Arabidopsis thaliana) (UniProt O49782).
T11 sequence: T1 sequence
As to the kind of experiment: split reporter.

The target of assay [15] is T12, JAZ10-cYFP (Arabidopsis thaliana) (UniProt Q93ZM9).
T12 sequence: T3 sequence
In words: split reporter.

“ERF109 fused to the GAL4 AD (from UniProt Q9SZ06 1-268)”: the figures for the binding entry in assay [1], in assay [2] and in [3] were “no binding”, “binds” and “no binding”, respectively.

On to HA-ERF109 (from UniProt Q9SZ06 1-268), for which the binding result in [4] is “binds”.

As to HA-MYC3 (from UniProt Q9FIP9 1-592), in [4], the binding result is reported as “binds”.

With “MYB34 fused to the GAL4 AD (from UniProt O64399 1-295)”, the binding result in assay [5], in assay [6], in [7], in [8], in assay [9] and in assay [10] was “no binding” throughout. Also, the binding result in [11] is “no binding”.

Consider “MYB51 NT-cYFP (from UniProt O49782 1-117) (domain or fragment)”, for which the binding result in assay [12] is “binds”.

On to “MYC3 fused to the GAL4 AD (from UniProt Q9FIP9 1-592)”, for which the binding entry was “binds” in assay [5]; “binds” in assay [6]; “no binding” in assay [9]; “binds” in [10]; “binds” in [11]; “binds” in assay [2]. For the same substance, the binding result in [13] is on record as “binds”.

Regarding “MYC4 fused to the GAL4 AD (from UniProt O49687 1-589)”, the binding entry in [2] and in assay [13] was “binds” throughout.

On to nYFP-ERF109 (from UniProt Q9SZ06 1-268), for which, in [14], the binding result was “binds”.

On to nYFP-MYC3 (from UniProt Q9FIP9 1-592), for which the binding entry in assay [15] and in assay [14] was “binds” throughout.
